# Test results reported in US8022089B2, “Isoxazoline-substituted benzamide compound and pesticide” (Nissan Chemical Industries, Ltd., priority 2004, dated 2011).
# Some of these results come from one statement about several compounds together. At least one structure is not confirmed: it was looked up by name or label, or the drawing left a doubt.
# Tested on: cabbage moth (Plutella xylostella)
# Assay: Insecticidal test against cabbage moth (leaf dip)
# Assay type: in vivo
# Conditions: 10 ppm chemical solution (**), second instar larva, after 6 days
row,SMILES,insecticidal rate (rate of dead insects)
1,Cc1ccc(NNC(=O)c2ccc(C3=NOC(c4cc(Cl)cc(Cl)c4)(C(F)(F)F)C3)cc2C)cc1 (stereo not shown) [2-048],≥ 80%
2,COCC(C)NC(=O)c1ccc(C2=NOC(c3cc(Cl)cc(Cl)c3)(C(F)(F)F)C2)cc1C (stereo not shown) [2-029],≥ 80%
3,CNC(=S)N(C)NC(=O)c1ccc(C2=NOC(c3cc(Cl)cc(Cl)c3)(C(F)(F)F)C2)cc1C (stereo not shown) [2-042],≥ 80%
4,Cc1cc(C2=NOC(c3cc(Cl)cc(Cl)c3)(C(F)(F)F)C2)ccc1C(=O)Nc1ccccn1 (stereo not shown) [2-054],≥ 80%
5,Cc1cc(C2=NOC(c3cc(Cl)cc(Cl)c3)(C(F)(F)F)C2)ccc1C(=O)NCCOc1ccccc1 (stereo not shown) [2-028],≥ 80%
6,Cc1cc(C2=NOC(c3cc(Cl)cc(Cl)c3)(C(F)(F)F)C2)ccc1C(=O)NNc1ccc(C(C)C)cc1 (stereo not shown) [2-049],≥ 80%
7,COc1ccc(CNC(=O)c2ccc(C3=NOC(c4cc(Cl)cc(Cl)c4)(C(F)(F)F)C3)cc2C)cc1 (stereo not shown) [2-034],≥ 80%
8,Cc1cc(C2=NOC(c3cc(Cl)cc(Cl)c3)(C(F)(F)F)C2)ccc1C(=O)NNc1ccc(F)cc1 (stereo not shown) [2-046],≥ 80%
9,Cc1cc(C2=NOC(c3cc(Cl)cc(Cl)c3)(C(F)(F)F)C2)ccc1C(=O)NCc1ccc(C#N)cc1 (stereo not shown) [2-035],≥ 80%
10,Cc1cc(C2=NOC(c3cc(Cl)cc(Cl)c3)(C(F)(F)F)C2)ccc1C(=O)Nc1ccncc1 (stereo not shown) [2-055],≥ 80%
11,Cc1cc(C2=NOC(c3cc(Cl)cc(Cl)c3)(C(F)(F)F)C2)ccc1C(=O)NNc1cccc(F)c1 (stereo not shown) [2-045],≥ 80%
12,Cc1cc(C2=NOC(c3cc(Cl)cc(Cl)c3)(C(F)(F)F)C2)ccc1C(=O)NNc1ccccc1F (stereo not shown) [2-044],≥ 80%

# Same assay, conditions: 100 ppm chemical solution (*), second instar larva, after 6 days
row,SMILES,insecticidal rate (rate of dead insects)
1,Cc1cc(C2=NOC(c3cc(Cl)cc(Cl)c3)(C(F)(F)F)C2)ccc1C(=O)NC(=O)OCCCl (stereo not shown) [2-059],≥ 80%
2,C=CCN(C(=O)OC(C)C)C(=O)c1ccc(C2=NOC(c3cc(Cl)cc(Cl)c3)(C(F)(F)F)C2)cc1C (stereo not shown) [2-058],≥ 80%
3,Cc1cc(C2=NOC(c3cc(Cl)cc(Cl)c3)(C(F)(F)F)C2)ccc1C(=O)NNc1ccc(OC(F)(F)F)cc1 (stereo not shown) [2-050],≥ 80%
4,Cc1cc(C2=NOC(c3cc(Cl)cc(Cl)c3)(C(F)(F)F)C2)ccc1C(=O)NC(=O)OCC(Cl)(Cl)Cl (stereo not shown) [2-061],≥ 80%
5,COc1ccc(CNC(=O)c2ccc(C3=NOC(c4cc(Cl)cc(Cl)c4)(C(F)(F)F)C3)cc2)cc1 (stereo not shown) [1-185],≥ 80%
6,Cc1cc(C2=NOC(c3cc(Cl)cc(Cl)c3)(C(F)(F)F)C2)ccc1C(=O)NNc1ccc(C#N)cc1 (stereo not shown) [2-051],≥ 80%
7,Cc1cc(C2=NOC(c3cc(Cl)cc(Cl)c3)(C(F)(F)F)C2)ccc1C(=O)NC(=O)OC(CCl)CCl (stereo not shown) [2-063],≥ 80%
8,Cc1cc(C2=NOC(c3cc(Cl)cc(Cl)c3)(C(F)(F)F)C2)ccc1C(=O)NC(=O)OCC(C)(C(F)(F)F)C(F)(F)F (stereo not shown) [2-067],≥ 80%
9,O=C(NCc1cccc([N+](=O)[O-])c1)c1ccc(C2=NOC(c3cc(Cl)cc(Cl)c3)(C(F)(F)F)C2)cc1 (stereo not shown) [1-188],≥ 80%
10,Cc1cc(C2=NOC(c3cc(Cl)cc(Cl)c3)(C(F)(F)F)C2)ccc1C(=O)NC(=O)OCCC(F)(F)F (stereo not shown) [2-062],≥ 80%
11,CCN(Cc1ccccc1)C(=O)c1ccc(C2=NOC(c3cc(Cl)cc(Cl)c3)(C(F)(F)F)C2)cc1 (stereo not shown) [2-022],≥ 80%
12,O=C(NCCC(F)(F)F)c1ccc(C2=NOC(c3cc(Cl)cc(Cl)c3)(C(F)(F)F)C2)cc1 (stereo not shown) [1-176],≥ 80%
13,Cc1cc(C2=NOC(c3cc(Cl)cc(Cl)c3)(C(F)(F)F)C2)ccc1C(=O)NNc1ccc(Br)cc1 (stereo not shown) [2-047],≥ 80%
14,Cc1cc(C2=NOC(c3cc(Cl)cc(Cl)c3)(C(F)(F)F)C2)ccc1C(=O)NC(=O)OCC(Cl)Cl (stereo not shown) [2-060],≥ 80%
15,COC(=O)C(NC(=O)c1ccc(C2=NOC(c3cc(Cl)cc(Cl)c3)(C(F)(F)F)C2)cc1C)c1ccccc1 (stereo not shown) [2-032],≥ 80%
16,CCOCCNC(=O)c1ccc(C2=NOC(c3cc(Cl)cc(Cl)c3)(C(F)(F)F)C2)cc1 (stereo not shown) [1-177],≥ 80%
17,Cc1cc(C2=NOC(c3cc(Cl)cc(Cl)c3)(C(F)(F)F)C2)ccc1C(=O)NC(=O)OC(C)C(C)Cl (stereo not shown) [2-065],≥ 80%
18,C=CCN(C(=O)OC)C(=O)c1ccc(C2=NOC(c3cc(Cl)cc(Cl)c3)(C(F)(F)F)C2)cc1C (stereo not shown) [2-057],≥ 80%
19,Cc1cc(C2=NOC(c3cc(Cl)cc(Cl)c3)(C(F)(F)F)C2)ccc1C(=O)NC1=NCCS1 (stereo not shown) [2-068],≥ 80%
20,O=C(NNc1ccccc1)c1ccc(C2=NOC(c3cc(Cl)cc(Cl)c3)(C(F)(F)F)C2)cc1 (stereo not shown) [1-206],≥ 80%

# Same assay, conditions: 500 ppm chemical solution, second instar larva, after 6 days
row,SMILES,insecticidal rate (rate of dead insects)
1,CCOC(=O)Cc1csc(NC(=O)c2ccc(C3=NOC(c4cc(Cl)cc(Cl)c4)(C(F)(F)F)C3)cc2)n1 (stereo not shown) [1-196],≥ 80%
2,Cc1cc(C2=NOC(c3cc(Cl)cc(Cl)c3)(C(F)(F)F)C2)ccc1C(=O)NCCN(C)C (stereo not shown) [2-030],≥ 80%
3,O=C(NCC1CC1)c1ccc(C2=NOC(c3cc(Cl)cc(Cl)c3)(C(F)(F)F)C2)cc1 (stereo not shown) [1-175],≥ 80%
4,Cc1nc(NC(=O)c2ccc(C3=NOC(c4cc(Cl)cc(Cl)c4)(C(F)(F)F)C3)cc2)sc1C (stereo not shown) [1-199],≥ 80%
5,O=C(NCCc1cccc(Cl)c1)c1ccc(C2=NOC(c3cc(Cl)cc(Cl)c3)(C(F)(F)F)C2)cc1 (stereo not shown) [1-190],≥ 80%
6,CCOC(=O)c1cnc(NC(=O)c2ccc(C3=NOC(c4cc(Cl)cc(Cl)c4)(C(F)(F)F)C3)cc2C)s1 (stereo not shown) [2-069],≥ 80%
7,O=C(NCCOc1ccccc1)c1ccc(C2=NOC(c3cc(Cl)cc(Cl)c3)(C(F)(F)F)C2)cc1 (stereo not shown) [1-194],≥ 80%
8,O=C(NCc1ccccc1)c1ccc(C2=NOC(c3cc(C(F)(F)F)cc(C(F)(F)F)c3)(C(F)(F)F)C2)cc1 (stereo not shown) [1-215],≥ 80%
9,CC(C=NNC(=O)c1ccc(C2=NOC(c3cc(Cl)cc(Cl)c3)(C(F)(F)F)C2)cc1C)=Cc1ccccc1 (stereo not shown) [2-053],≥ 80%
10,NS(=O)(=O)c1ccc(CNC(=O)c2ccc(C3=NOC(c4cc(Cl)cc(Cl)c4)(C(F)(F)F)C3)cc2)cc1 (stereo not shown) [1-187],≥ 80%
11,O=C(NCC(F)(F)F)c1ccc(C2=NOC(c3cc(C(F)(F)F)cc(C(F)(F)F)c3)(C(F)(F)F)C2)cc1 (stereo not shown) [1-214],≥ 80%
12,COC(=O)CCNC(=O)c1ccc(C2=NOC(c3cc(Cl)cc(Cl)c3)(C(F)(F)F)C2)cc1C (stereo not shown) [2-033],≥ 80%
13,Cc1cc(C2=NOC(c3cc(Cl)cc(Cl)c3)(C(F)(F)F)C2)ccc1C(=O)NC(=O)OC(C(F)(F)F)C(F)(F)F (stereo not shown) [2-064],≥ 80%
14,Cc1cc(C2=NOC(c3cc(Cl)cc(Cl)c3)(C(F)(F)F)C2)ccc1C(=O)NC(=O)OCCCCCl (stereo not shown) [2-066],≥ 80%
15,Cc1cc(C)cc(C2(C(F)(F)F)CC(c3ccc(C(=O)NCC(F)(F)F)cc3)=NO2)c1 (stereo not shown) [1-212],≥ 80%
16,Cc1cc(C2=NOC(c3cc(Cl)cc(Cl)c3)(C(F)(F)F)C2)ccc1C(=O)NN(C)c1ccc(C(F)(F)F)cn1 (stereo not shown) [2-052],≥ 80%
17,COC(=O)C(NC(=O)c1ccc(C2=NOC(c3cc(Cl)cc(Cl)c3)(C(F)(F)F)C2)cc1C)c1ccccc1 (stereo not shown) [2-031],≥ 80%
